# According to the supplement of paper PMC10849652:
# Sequences of proteins named here, by UniProt entry; tags and fusion partners are left off. A change or cut given only in a name is not applied to a line headed by its entry.
# UniProt Q9UHX1: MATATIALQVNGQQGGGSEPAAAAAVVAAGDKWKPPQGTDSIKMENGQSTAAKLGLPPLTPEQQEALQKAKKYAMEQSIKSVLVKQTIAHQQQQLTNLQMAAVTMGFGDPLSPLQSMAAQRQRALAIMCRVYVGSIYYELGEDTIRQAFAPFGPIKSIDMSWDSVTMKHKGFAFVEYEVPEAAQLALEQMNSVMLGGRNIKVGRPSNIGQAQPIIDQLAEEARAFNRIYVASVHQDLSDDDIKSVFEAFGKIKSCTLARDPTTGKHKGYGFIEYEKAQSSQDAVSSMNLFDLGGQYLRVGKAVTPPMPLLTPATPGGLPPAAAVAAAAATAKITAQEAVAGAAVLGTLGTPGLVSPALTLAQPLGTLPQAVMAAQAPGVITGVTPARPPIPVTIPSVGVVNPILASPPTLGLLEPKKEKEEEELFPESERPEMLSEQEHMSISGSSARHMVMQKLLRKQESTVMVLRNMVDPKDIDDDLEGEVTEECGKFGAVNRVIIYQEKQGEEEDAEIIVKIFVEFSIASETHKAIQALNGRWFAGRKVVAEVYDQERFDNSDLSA
# UniProt P48634: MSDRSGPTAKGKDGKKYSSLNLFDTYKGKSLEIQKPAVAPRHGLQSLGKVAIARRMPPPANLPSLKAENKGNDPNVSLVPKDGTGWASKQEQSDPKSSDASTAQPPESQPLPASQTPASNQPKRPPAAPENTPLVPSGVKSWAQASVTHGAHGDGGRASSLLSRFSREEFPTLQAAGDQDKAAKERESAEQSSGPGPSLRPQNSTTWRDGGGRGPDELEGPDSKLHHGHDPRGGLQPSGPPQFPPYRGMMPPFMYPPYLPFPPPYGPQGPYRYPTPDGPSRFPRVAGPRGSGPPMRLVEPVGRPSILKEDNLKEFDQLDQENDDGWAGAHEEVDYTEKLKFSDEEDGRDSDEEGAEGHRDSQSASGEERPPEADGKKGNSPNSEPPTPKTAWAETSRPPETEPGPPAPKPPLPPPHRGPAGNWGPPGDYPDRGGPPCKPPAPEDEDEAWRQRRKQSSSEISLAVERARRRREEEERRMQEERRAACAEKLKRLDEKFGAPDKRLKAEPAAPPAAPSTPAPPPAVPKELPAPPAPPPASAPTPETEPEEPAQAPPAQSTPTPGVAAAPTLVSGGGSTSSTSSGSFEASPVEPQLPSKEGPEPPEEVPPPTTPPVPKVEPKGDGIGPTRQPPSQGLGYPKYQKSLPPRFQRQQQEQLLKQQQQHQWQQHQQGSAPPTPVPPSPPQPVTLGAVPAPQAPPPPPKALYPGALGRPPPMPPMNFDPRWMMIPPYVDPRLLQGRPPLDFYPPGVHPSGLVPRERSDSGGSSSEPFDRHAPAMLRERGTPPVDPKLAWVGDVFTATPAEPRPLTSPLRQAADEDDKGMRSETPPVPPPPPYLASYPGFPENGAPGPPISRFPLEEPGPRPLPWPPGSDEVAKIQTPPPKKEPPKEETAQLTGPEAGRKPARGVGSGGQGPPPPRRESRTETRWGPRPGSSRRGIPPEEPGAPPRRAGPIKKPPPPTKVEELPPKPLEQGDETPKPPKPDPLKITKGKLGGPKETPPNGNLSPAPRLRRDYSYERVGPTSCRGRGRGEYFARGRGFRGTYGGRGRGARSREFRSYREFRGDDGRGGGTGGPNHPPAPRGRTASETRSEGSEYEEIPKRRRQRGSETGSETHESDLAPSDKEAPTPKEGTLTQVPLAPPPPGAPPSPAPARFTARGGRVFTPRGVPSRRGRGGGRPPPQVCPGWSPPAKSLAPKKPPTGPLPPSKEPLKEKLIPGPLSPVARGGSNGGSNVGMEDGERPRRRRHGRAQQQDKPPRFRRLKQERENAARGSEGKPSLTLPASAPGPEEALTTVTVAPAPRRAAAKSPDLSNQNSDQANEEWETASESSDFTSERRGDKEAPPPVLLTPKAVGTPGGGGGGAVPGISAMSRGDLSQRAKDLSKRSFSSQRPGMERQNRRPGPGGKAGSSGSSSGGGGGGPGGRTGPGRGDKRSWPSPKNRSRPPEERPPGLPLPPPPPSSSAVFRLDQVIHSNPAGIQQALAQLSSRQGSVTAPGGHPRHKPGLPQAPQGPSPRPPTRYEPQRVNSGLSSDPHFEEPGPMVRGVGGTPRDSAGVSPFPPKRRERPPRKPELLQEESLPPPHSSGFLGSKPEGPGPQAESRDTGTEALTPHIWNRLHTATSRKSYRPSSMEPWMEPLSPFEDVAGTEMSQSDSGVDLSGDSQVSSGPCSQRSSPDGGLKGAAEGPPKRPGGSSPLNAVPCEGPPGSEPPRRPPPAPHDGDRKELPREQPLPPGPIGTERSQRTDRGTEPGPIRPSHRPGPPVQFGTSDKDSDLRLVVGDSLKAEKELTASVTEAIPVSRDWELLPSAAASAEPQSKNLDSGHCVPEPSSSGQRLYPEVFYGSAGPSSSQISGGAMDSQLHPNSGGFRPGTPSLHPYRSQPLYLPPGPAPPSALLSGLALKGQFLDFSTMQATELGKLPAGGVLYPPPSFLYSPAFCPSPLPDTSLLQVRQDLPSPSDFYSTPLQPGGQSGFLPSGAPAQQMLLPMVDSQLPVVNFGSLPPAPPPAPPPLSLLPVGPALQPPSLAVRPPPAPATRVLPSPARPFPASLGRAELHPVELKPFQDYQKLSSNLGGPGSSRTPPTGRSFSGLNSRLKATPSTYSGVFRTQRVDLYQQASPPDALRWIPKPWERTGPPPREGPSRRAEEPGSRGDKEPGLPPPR
# UniProt Q9H3S7: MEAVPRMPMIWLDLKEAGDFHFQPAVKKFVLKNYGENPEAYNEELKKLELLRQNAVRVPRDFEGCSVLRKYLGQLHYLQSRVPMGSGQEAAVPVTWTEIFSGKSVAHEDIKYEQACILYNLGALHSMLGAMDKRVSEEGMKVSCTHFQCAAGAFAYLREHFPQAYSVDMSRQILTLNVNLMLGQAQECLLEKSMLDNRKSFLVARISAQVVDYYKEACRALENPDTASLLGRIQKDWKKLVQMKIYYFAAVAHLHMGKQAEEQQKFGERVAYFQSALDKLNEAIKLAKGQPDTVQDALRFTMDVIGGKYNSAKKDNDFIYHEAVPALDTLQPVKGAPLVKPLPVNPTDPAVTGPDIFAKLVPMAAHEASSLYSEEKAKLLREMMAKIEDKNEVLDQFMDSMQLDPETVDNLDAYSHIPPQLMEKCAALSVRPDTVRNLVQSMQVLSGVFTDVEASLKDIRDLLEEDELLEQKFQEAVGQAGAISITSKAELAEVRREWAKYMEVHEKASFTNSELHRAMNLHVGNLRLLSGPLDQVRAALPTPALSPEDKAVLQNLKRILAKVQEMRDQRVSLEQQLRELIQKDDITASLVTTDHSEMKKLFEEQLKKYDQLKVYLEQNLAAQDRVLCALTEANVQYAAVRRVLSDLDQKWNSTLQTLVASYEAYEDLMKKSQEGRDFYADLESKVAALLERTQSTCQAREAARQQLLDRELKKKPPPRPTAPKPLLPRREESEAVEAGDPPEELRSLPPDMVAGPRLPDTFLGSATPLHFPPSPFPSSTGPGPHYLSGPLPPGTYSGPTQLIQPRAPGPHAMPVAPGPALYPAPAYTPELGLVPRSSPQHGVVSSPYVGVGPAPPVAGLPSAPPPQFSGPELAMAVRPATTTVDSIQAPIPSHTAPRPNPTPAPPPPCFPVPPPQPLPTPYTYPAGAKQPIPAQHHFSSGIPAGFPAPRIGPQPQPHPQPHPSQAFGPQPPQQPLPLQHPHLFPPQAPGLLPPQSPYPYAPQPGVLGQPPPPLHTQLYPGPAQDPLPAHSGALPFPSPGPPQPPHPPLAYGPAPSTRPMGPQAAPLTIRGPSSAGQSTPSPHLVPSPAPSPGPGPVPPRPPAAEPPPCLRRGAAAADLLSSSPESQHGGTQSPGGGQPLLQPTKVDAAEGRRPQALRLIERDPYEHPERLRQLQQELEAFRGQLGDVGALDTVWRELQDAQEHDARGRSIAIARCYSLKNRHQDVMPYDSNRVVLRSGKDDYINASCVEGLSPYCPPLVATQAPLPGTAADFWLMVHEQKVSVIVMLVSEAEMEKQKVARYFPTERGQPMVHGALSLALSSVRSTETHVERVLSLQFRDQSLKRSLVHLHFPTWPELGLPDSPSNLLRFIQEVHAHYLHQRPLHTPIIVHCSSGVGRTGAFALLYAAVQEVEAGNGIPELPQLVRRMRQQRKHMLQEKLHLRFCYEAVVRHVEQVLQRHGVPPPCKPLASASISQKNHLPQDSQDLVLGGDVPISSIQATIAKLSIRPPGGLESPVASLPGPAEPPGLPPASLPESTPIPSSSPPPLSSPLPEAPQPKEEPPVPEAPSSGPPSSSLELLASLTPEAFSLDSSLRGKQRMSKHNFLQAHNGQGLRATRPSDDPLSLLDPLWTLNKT
# UniProt Q08623: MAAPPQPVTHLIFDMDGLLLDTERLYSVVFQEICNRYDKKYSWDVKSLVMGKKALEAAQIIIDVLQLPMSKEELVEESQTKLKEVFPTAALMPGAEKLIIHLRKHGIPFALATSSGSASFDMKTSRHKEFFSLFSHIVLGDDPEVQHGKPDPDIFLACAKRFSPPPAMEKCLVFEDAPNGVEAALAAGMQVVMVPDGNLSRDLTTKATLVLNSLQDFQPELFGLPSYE
# UniProt Q6PGN9: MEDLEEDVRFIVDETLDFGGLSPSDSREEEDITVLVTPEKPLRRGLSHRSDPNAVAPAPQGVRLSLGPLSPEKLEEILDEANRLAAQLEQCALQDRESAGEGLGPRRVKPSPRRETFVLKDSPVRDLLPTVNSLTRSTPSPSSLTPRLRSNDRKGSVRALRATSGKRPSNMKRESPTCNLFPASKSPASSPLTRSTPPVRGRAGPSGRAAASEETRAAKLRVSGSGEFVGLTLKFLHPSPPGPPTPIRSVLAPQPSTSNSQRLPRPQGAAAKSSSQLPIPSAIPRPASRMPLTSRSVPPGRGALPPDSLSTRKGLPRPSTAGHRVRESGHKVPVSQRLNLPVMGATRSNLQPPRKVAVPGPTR
# UniProt Q9H939: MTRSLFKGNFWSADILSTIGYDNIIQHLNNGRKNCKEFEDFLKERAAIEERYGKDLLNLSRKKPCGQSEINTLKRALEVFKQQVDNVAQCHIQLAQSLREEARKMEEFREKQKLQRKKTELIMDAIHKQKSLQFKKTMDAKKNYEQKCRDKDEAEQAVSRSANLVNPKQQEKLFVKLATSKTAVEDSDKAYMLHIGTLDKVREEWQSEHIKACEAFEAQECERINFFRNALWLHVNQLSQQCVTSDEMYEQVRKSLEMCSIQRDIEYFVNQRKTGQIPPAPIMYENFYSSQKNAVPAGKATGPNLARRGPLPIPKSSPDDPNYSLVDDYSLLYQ
# UniProt Q9UKA9: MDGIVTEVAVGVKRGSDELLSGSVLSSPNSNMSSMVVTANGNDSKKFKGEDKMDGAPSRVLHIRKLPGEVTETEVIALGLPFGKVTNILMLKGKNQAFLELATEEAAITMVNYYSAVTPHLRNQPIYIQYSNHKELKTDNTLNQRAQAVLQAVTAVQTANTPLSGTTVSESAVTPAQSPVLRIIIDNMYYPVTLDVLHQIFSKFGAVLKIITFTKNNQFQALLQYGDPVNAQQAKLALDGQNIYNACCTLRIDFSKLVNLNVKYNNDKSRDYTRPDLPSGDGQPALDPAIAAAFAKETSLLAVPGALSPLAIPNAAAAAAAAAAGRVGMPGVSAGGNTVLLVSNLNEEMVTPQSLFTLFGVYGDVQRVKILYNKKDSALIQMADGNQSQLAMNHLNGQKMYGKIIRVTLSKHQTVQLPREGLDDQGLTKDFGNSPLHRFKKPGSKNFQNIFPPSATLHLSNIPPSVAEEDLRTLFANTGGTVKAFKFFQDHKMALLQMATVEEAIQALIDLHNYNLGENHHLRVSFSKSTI
# UniProt Q8WV60: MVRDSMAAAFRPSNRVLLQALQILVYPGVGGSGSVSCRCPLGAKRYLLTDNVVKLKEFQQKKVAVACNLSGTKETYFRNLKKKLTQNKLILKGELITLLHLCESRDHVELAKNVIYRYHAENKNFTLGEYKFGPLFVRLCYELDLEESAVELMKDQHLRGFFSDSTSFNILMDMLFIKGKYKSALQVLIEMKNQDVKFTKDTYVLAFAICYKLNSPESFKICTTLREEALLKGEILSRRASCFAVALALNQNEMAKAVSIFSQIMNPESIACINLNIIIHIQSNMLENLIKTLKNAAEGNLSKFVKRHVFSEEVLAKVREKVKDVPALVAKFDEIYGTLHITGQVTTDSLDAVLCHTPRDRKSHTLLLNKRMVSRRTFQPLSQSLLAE
# UniProt Q9UNM6: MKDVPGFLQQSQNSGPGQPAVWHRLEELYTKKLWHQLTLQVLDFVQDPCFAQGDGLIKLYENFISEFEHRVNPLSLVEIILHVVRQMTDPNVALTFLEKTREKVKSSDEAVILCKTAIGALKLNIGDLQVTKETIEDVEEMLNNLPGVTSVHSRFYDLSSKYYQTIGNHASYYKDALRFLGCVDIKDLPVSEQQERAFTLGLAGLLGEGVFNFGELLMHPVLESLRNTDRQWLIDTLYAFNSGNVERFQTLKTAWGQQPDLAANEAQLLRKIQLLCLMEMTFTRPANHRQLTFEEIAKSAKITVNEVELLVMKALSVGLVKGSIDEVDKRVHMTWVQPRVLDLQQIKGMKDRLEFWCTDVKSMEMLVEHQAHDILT
# Some of the results follow.
# How the values were obtained:
# Assay in all cases: log2 fold change, soluble protein after heating vs DMSO (PISA); higher = thermal stabilisation; K562 lysate, 10 uM; active = over 0.2 and 3.5 SD of the protein, either way, in both replicates (recomputed)
# vemurafenib = compound: CCCS(=O)(=O)Nc1ccc(F)c(C(=O)c2c[nH]c3ncc(-c4ccc(Cl)cc4)cc23)c1F [vemurafenib]
# Summary of the method: (§1)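 Log-two fold change in thermal stability relative to solvent controls is reported from duplicates. For each sample, crude K562 extract from dounce-homogenised pellets in PBS pH 7.4 with 1 mM MgCl2, at 1 mg/mL protein, was treated with 10 μM compound for 30 min. Aliquots heated for 3 min across 48°C-58°C were pooled, brought to 0.5% NP-40 at 4°C and cleared at 21,000xg for 90 min. The supernatant was quantified by TMTpro 16plex LC-MS/MS with channel sums equalised.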
# [1] = compound: CCCS(=O)(=O)Nc1ccc(F)c(C(=O)c2c[nH]c3ncc(Cl)cc23)c1F
# Summary of the method: as §1
# barasertib = compound: CCN(CCCOc1ccc2c(Nc3cc(CC(=O)Nc4cccc(F)c4)[nH]n3)ncnc2c1)CCOP(=O)(O)O [barasertib]
# Summary of the method: as §1
# [2] = compound: CC[C@@H]1C(=O)N(C)c2cnc(Nc3ccc(C(=O)NC4CCN(C)CC4)cc3OC)nc2N1C1CCCC1
# Summary of the method: as §1
# volasertib = compound: CC[C@@H]1C(=O)N(C)c2cnc(Nc3ccc(C(=O)N[C@H]4CC[C@H](N5CCN(CC6CC6)CC5)CC4)cc3OC)nc2N1C(C)C [volasertib]
# Summary of the method: as §1
# [3] = compound: CCn1c(C(=O)N(C2CC2)C2CC2)cc2c3c(ncn3C)c(Nc3cc(C)n(C)n3)nc21
# Summary of the method: as §1
# [4] = compound: CCn1cc(-c2ccnc3[nH]c(-c4cccc(CN(C)C)c4)cc23)c(-c2ccc(NC(=O)N(C)C)cc2)n1
# Summary of the method: as §1
# [5] = compound: CN1CCC(CNc2ccc3ncc(-c4cccc(OC(F)(F)F)c4)n3n2)CC1
# Summary of the method: as §1
# saracatinib = compound: CN1CCN(CCOc2cc(OC3CCOCC3)c3c(Nc4c(Cl)ccc5c4OCO5)ncnc3c2)CC1 [saracatinib]
# Summary of the method: as §1
# sotrastaurin = compound: CN1CCN(c2nc(C3=C(c4c[nH]c5ccccc45)C(=O)NC3=O)c3ccccc3n2)CC1 [sotrastaurin]
# Summary of the method: as §1
Target,log2 fold change (vemurafenib),log2 fold change [1],log2 fold change (barasertib),log2 fold change [2],log2 fold change (volasertib),log2 fold change [3],log2 fold change [4],log2 fold change [5],log2 fold change (saracatinib),log2 fold change (sotrastaurin)
PSMD8 (UniProt P48556),inactive: -0.022,inactive: 0.023,inactive: 0.042,inactive: -0.058,inactive: -0.04,inactive: 0.034,inactive: -0.017,inactive: 0.064,inactive: -0.003,inactive: -0.019
PSMA6 (UniProt P60900),inactive: -0.024,inactive: 0.002,inactive: -0.03,inactive: 0.003,inactive: 0.03,inactive: -0.038,inactive: 0.063,inactive: 0.023,inactive: -0.015,inactive: 0.008
PSMB7 (UniProt Q99436),inactive: 0.02,inactive: -0.013,inactive: -0.024,inactive: 0.017,inactive: 0.037,inactive: -0.025,inactive: -0.039,inactive: 0.035,inactive: 0.003,inactive: 0.015
PSMD3 (UniProt O43242),inactive: -0.02,inactive: -0.003,inactive: -0.003,inactive: -0.031,inactive: -0.015,inactive: 0.001,inactive: -0.018,inactive: 0.009,inactive: -0.008,inactive: 0
PUF60 (UniProt Q9UHX1),inactive: 0.002,inactive: 0.015,inactive: -0.005,inactive: 0.002,inactive: 0.003,inactive: -0.015,inactive: 0.116,inactive: -0.018,inactive: 0,inactive: -0.02
PSMG1 (UniProt O95456),inactive: -0.024,inactive: -0.019,inactive: -0.062,inactive: -0.017,inactive: 0.01,inactive: -0.024,inactive: -0.012,inactive: 0.02,inactive: -0.017,inactive: 0.019
PRPH isoform 2 (UniProt P41219),inactive: 0.03,inactive: -0.05,inactive: -0.13,inactive: -0.102,inactive: -0.028,inactive: 0.098,inactive: 0.132,inactive: -0.1,inactive: 0.071,inactive: 0.036
PSME1 (UniProt Q06323),inactive: -0.013,inactive: -0.011,inactive: -0.037,inactive: 0.017,inactive: 0.027,inactive: 0.039,inactive: 0.081,inactive: -0.007,inactive: -0.01,inactive: 0.018
PSMC2 (UniProt P35998),inactive: -0.022,inactive: 0.02,inactive: -0.008,inactive: -0.023,inactive: -0.031,inactive: 0.009,inactive: 0.007,inactive: -0.055,inactive: 0.001,inactive: 0.011
PRRC2A (UniProt P48634),inactive: -0.006,inactive: 0.008,inactive: -0.013,inactive: 0.107,inactive: 0.012,inactive: 0.013,inactive: 0.05,inactive: 0.008,inactive: 0.049,inactive: -0.014
PTPN23 (UniProt Q9H3S7),inactive: -0.008,inactive: 0,inactive: 0.003,inactive: -0.006,inactive: -0.042,inactive: 0.026,inactive: -0.017,inactive: 0.007,inactive: 0.008,inactive: -0.001
PSMD7 (UniProt P51665),inactive: -0.01,inactive: -0.004,inactive: 0.023,inactive: 0.02,inactive: -0.01,inactive: 0.001,inactive: -0.018,inactive: 0.013,inactive: 0.008,inactive: 0.031
PTMS (UniProt P20962),inactive: 0.029,inactive: -0.025,inactive: -0.003,inactive: -0.003,inactive: 0.067,inactive: -0.021,inactive: 0.006,inactive: 0.011,inactive: -0.016,inactive: 0.069
PUDP isoform 4 (UniProt Q08623),inactive: 0.033,inactive: -0.01,inactive: 0.181,inactive: 0.075,inactive: 0.007,inactive: -0.023,inactive: -0.047,inactive: 0.056,inactive: -0.042,inactive: -0.025
PSRC1 (UniProt Q6PGN9),inactive: -0.116,inactive: 0.038,inactive: 0.058,inactive: -0.216,inactive: -0.017,inactive: 0.045,inactive: 0.072,inactive: -0.083,inactive: -0.032,inactive: 0.047
PTS (UniProt Q03393),active: 0.33,inactive: 0.044,inactive: 0.051,inactive: 0.054,inactive: 0.014,inactive: 0.02,inactive: -0.045,inactive: 0.01,inactive: 0.104,inactive: 0.057

Target,log2 fold change (vemurafenib),log2 fold change [1],log2 fold change (barasertib),log2 fold change [2],log2 fold change (volasertib),log2 fold change [3],log2 fold change [4],log2 fold change [5],log2 fold change (saracatinib),log2 fold change (sotrastaurin)
PTPN7 isoform 3 (UniProt P35236),inactive: 0.016,inactive: 0.06,inactive: 0.026,inactive: -0.025,inactive: -0.06,inactive: 0.063,inactive: -0.076,inactive: 0.124,inactive: 0.005,inactive: 0.015
PSTPIP2 (UniProt Q9H939),inactive: 0.022,inactive: 0.018,inactive: 0.01,inactive: -0.029,inactive: -0.037,inactive: -0.007,inactive: 0.063,inactive: -0.09,inactive: 0.032,inactive: 0
PTBP2 isoform 2 (UniProt Q9UKA9),inactive: 0.125,inactive: 0.002,inactive: -0.052,inactive: 0.137,inactive: -0.071,inactive: -0.054,inactive: -0.176,inactive: 0.148,inactive: 0.032,inactive: 0.068
PTP4A3 (UniProt O75365),inactive: 0.08,inactive: 0.038,,inactive: 0.026,inactive: -0.009,,,,inactive: -0.253,inactive: -0.037
PTPA (UniProt Q5T948),inactive: 0.05,inactive: 0.001,,,inactive: 0.121,inactive: 0.056,,,,
PTPRJ (UniProt Q12913),inactive: -0.153,inactive: -0.012,inactive: -0.014,inactive: 0.006,inactive: 0.011,inactive: 0.07,inactive: -0.033,inactive: 0.13,,inactive: 0.113
PSMD10 (UniProt O75832),inactive: 0.01,inactive: -0.003,inactive: 0.057,inactive: -0.019,inactive: -0.006,inactive: -0.011,inactive: -0.179,inactive: 0,inactive: -0.03,inactive: -0.011
PTPMT1 (UniProt Q8WUK0),inactive: -0.077,inactive: 0.011,inactive: 0.154,inactive: 0.005,inactive: -0.006,inactive: -0.11,inactive: 0.197,inactive: -0.427,inactive: 0.016,inactive: -0.135
PTBP3 isoform 4 (UniProt O95758),inactive: 0.01,inactive: 0.016,inactive: 0.016,inactive: -0.003,inactive: 0.002,inactive: 0.037,inactive: -0.107,inactive: -0.002,inactive: 0.007,inactive: -0.043
PSMF1 (UniProt Q5QPM7),inactive: -0.001,,,inactive: 0.274,,,inactive: -0.075,inactive: -0.021,,inactive: 0.006
PUF60 isoform 2 (UniProt Q9UHX1),inactive: -0.126,inactive: 0.101,inactive: -0.057,inactive: 0.047,inactive: 0.021,inactive: -0.062,active: 1.25,inactive: -0.115,,inactive: -0.043
PTCD2 (UniProt Q8WV60),inactive: -0.202,inactive: -0.172,,inactive: -0.089,inactive: 0.079,inactive: 0.07,,,inactive: -0.002,inactive: 0.055
PUM2 (UniProt Q8TB72),inactive: -0.039,inactive: 0.007,inactive: 0.213,inactive: 0.134,inactive: -0.04,inactive: 0.171,inactive: 0.094,inactive: -0.13,inactive: -0.085,inactive: -0.022
PSMA1 isoform 2 (UniProt P25786),inactive: 0.026,inactive: -0.01,inactive: -0.06,inactive: 0.028,inactive: 0.051,inactive: -0.03,inactive: -0.06,inactive: 0.04,inactive: -0.009,inactive: -0.006
PSMD13 (UniProt Q9UNM6),inactive: -0.05,inactive: -0.022,inactive: 0.095,inactive: -0.102,inactive: -0.015,inactive: 0.016,inactive: -0.044,inactive: -0.021,inactive: -0.011,inactive: -0.045

# In a second layout: results already given.
Target	log2 fold change (vemurafenib)	log2 fold change [1]	log2 fold change (barasertib)	log2 fold change [2]	log2 fold change (volasertib)	log2 fold change [3]	log2 fold change [4]	log2 fold change [5]	log2 fold change (saracatinib)	log2 fold change (sotrastaurin)
PTPN23 (UniProt Q9H3S7)	inactive: -0.008	inactive: 0	inactive: 0.003	inactive: -0.006	inactive: -0.042	inactive: 0.026	inactive: -0.017	inactive: 0.007	inactive: 0.008	inactive: -0.001
PUDP isoform 4 (UniProt Q08623)	inactive: 0.033	inactive: -0.01	inactive: 0.181	inactive: 0.075	inactive: 0.007	inactive: -0.023	inactive: -0.047	inactive: 0.056	inactive: -0.042	inactive: -0.025
PSRC1 (UniProt Q6PGN9)	inactive: -0.116	inactive: 0.038	inactive: 0.058	inactive: -0.216	inactive: -0.017	inactive: 0.045	inactive: 0.072	inactive: -0.083	inactive: -0.032	inactive: 0.047
PTS (UniProt Q03393)	active: 0.33	inactive: 0.044	inactive: 0.051	inactive: 0.054	inactive: 0.014	inactive: 0.02	inactive: -0.045	inactive: 0.01	inactive: 0.104	inactive: 0.057
PTPRJ (UniProt Q12913)	inactive: -0.153	inactive: -0.012	inactive: -0.014	inactive: 0.006	inactive: 0.011	inactive: 0.07	inactive: -0.033	inactive: 0.13		inactive: 0.113
PTCD2 (UniProt Q8WV60)	inactive: -0.202	inactive: -0.172		inactive: -0.089	inactive: 0.079	inactive: 0.07			inactive: -0.002	inactive: 0.055
